The other results are listed elsewhere or left out.
Key:
Assay in all cases: log2 fold change, soluble protein after heating vs DMSO (PISA); higher = thermal stabilisation; K562 cells, 10 uM, 30 min; active = over 0.2 and 3.5 SD of the protein, either way, in both replicates (recomputed)
[1] = compound: CS(=O)(=O)c1ccc(-c2cnc(N)c(C(=O)Nc3ccccc3)n2)cc1
Summary of the method: (§1)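 Soluble protein was quantified by TMTpro 16plex LC-MS/MS after channel sums were equalised. It was obtained as the supernatant after 21,000xg for 90 min from pooled aliquots of K562 cells (2×10^6 cells/mL, 10 μM compound, 30 min) heated for 3 min across 48°C-58°C and extracted in PBS with 0.5% NP-40 at 4°C. Thermal stability values are relative to control samples and come from duplicates. They are given as log2 fold changes.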

Amino acid sequences for entries named in this document (tags omitted). A change or cut given only in a name is not applied to a line headed by its entry.
UniProt Q01469, whole entry, looked up: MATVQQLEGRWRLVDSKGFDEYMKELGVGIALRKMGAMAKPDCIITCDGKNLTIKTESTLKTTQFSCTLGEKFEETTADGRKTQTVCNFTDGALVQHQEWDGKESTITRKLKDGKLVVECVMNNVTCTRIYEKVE
UniProt Q9NQT4, whole entry, looked up: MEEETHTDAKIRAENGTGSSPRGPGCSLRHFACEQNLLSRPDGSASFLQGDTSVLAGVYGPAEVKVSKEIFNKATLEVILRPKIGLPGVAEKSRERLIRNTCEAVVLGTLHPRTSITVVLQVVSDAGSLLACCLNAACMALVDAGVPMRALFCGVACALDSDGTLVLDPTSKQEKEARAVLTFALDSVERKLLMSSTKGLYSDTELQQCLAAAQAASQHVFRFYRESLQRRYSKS
UniProt Q01844: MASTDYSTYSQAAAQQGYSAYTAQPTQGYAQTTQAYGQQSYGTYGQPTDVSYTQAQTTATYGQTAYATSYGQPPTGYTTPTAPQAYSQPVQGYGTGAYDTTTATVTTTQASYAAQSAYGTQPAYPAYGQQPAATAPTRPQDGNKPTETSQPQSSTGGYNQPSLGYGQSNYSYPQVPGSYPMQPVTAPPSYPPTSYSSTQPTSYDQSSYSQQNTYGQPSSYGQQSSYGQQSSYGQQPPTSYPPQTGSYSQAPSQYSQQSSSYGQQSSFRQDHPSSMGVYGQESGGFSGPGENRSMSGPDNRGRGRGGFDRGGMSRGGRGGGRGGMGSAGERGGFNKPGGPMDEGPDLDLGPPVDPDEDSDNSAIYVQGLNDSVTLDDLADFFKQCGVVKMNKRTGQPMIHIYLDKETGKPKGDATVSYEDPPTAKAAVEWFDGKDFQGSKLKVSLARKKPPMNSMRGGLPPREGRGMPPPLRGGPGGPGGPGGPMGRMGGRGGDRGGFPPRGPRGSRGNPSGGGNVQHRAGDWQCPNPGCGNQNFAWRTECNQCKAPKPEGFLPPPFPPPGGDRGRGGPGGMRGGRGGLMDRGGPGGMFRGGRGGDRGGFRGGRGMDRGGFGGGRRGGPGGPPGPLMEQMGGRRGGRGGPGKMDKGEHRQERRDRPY
UniProt Q15024, whole entry, looked up: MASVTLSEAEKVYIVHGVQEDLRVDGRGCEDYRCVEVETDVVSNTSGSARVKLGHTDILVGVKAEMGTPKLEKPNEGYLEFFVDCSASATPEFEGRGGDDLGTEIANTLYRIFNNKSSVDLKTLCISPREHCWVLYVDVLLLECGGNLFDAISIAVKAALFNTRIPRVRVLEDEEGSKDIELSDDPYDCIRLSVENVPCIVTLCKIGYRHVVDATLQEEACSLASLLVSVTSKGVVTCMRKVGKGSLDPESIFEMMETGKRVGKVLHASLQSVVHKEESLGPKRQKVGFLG
UniProt Q92889: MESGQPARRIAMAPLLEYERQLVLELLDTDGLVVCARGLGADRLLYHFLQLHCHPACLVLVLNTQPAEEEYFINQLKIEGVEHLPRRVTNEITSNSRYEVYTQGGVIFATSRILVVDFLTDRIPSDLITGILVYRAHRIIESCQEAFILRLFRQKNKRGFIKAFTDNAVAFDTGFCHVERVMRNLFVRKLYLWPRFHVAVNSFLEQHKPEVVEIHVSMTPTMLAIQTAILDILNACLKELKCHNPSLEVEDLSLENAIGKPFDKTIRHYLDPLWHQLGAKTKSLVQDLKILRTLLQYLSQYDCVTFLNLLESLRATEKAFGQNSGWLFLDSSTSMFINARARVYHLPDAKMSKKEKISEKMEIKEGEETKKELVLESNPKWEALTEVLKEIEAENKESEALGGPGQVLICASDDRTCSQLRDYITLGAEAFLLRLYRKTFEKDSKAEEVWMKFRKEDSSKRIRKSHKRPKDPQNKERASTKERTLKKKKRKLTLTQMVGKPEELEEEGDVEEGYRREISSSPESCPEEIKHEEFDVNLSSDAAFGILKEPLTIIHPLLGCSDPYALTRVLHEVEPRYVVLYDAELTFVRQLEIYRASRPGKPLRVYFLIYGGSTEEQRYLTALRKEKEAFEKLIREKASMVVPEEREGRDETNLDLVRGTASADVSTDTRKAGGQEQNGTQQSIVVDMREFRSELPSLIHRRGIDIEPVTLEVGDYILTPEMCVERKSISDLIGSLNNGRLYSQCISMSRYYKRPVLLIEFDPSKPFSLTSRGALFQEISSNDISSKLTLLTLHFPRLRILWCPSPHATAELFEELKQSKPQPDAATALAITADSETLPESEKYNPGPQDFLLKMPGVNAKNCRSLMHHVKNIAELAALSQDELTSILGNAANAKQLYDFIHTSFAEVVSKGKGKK
UniProt O75063: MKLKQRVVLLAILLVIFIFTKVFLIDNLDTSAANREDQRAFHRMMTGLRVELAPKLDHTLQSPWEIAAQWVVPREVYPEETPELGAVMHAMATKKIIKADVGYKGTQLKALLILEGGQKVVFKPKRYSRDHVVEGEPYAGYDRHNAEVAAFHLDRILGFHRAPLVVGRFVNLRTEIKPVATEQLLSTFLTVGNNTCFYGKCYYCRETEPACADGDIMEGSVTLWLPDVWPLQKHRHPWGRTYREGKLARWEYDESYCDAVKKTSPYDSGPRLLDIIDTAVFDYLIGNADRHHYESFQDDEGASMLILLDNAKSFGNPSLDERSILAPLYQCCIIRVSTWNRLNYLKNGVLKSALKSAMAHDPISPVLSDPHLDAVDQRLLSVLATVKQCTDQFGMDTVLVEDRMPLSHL
UniProt Q96GK7: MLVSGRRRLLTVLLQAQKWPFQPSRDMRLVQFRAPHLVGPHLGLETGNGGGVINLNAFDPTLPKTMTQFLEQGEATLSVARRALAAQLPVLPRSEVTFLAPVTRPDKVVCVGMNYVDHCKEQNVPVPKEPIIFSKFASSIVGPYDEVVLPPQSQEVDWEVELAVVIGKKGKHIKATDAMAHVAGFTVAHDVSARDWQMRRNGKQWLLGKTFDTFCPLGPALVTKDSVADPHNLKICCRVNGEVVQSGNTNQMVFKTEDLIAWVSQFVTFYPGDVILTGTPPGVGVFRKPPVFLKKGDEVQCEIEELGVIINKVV
UniProt Q9Y624, whole entry, looked up, stated change not applied: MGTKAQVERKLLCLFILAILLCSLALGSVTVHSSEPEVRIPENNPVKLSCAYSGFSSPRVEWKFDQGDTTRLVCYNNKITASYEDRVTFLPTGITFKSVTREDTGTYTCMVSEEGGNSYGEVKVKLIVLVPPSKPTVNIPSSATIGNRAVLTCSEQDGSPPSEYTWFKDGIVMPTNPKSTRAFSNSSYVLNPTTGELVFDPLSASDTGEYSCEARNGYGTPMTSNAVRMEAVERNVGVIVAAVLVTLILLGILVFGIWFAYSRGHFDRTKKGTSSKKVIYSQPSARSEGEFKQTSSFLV
UniProt Q7Z2K6: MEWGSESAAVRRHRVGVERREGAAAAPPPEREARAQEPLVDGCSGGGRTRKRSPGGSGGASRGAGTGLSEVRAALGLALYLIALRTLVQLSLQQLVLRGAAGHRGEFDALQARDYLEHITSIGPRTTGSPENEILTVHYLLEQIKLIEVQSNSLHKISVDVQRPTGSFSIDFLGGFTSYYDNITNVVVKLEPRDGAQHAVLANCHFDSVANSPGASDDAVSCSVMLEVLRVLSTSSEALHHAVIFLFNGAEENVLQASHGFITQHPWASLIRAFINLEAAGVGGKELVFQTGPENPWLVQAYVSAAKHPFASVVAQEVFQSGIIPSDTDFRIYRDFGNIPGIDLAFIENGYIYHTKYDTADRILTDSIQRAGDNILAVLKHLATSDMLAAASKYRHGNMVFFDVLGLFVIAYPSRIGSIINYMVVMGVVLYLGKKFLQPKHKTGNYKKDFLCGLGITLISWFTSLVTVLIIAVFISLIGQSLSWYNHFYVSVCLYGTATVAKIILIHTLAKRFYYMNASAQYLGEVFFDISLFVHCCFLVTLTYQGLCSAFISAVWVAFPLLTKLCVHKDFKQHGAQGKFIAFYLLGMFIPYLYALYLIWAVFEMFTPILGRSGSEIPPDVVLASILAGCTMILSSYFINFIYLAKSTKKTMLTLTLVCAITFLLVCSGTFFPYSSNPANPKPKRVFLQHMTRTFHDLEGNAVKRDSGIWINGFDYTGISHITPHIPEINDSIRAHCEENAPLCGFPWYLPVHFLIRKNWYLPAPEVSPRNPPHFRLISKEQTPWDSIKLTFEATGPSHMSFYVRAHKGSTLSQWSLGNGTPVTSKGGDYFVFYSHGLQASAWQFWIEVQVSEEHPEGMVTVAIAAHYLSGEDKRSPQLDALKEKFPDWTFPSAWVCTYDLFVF
UniProt P19447: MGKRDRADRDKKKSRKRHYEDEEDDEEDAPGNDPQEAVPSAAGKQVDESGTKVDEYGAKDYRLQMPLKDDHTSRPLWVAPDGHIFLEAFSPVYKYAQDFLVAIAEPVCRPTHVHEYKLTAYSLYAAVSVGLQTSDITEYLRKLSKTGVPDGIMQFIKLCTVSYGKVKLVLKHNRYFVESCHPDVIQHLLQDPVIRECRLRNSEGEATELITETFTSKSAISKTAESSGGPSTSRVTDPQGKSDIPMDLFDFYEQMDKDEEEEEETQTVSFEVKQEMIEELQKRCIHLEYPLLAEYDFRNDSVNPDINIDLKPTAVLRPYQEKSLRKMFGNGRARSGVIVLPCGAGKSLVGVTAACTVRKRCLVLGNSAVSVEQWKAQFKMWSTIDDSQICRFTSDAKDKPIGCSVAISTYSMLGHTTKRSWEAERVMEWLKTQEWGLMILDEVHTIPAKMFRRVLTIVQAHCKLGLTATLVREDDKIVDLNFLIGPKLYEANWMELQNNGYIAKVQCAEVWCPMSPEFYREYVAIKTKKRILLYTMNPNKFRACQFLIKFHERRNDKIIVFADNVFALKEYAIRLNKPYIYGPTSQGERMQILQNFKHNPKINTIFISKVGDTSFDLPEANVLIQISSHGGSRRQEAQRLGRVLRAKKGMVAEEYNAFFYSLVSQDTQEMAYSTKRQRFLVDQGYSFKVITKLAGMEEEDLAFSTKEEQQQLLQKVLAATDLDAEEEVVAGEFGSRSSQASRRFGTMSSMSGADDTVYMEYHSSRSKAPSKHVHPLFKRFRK
UniProt Q6P587: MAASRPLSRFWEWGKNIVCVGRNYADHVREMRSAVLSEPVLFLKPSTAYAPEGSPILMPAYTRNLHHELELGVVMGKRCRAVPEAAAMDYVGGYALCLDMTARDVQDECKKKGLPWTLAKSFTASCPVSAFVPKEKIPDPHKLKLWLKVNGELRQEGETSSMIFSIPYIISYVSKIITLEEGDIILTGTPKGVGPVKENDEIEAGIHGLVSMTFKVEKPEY
UniProt Q9BS26: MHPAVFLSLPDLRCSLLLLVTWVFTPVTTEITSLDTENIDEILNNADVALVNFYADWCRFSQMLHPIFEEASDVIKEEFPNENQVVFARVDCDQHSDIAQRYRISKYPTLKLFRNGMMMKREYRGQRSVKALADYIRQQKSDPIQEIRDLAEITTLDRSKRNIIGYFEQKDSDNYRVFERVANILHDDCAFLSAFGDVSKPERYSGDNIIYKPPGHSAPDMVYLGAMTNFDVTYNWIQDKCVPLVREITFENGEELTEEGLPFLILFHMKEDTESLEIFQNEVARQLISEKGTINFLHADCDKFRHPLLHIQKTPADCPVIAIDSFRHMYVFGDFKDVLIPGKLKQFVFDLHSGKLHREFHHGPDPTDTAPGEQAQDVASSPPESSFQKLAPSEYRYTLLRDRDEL
UniProt Q9Y6I3: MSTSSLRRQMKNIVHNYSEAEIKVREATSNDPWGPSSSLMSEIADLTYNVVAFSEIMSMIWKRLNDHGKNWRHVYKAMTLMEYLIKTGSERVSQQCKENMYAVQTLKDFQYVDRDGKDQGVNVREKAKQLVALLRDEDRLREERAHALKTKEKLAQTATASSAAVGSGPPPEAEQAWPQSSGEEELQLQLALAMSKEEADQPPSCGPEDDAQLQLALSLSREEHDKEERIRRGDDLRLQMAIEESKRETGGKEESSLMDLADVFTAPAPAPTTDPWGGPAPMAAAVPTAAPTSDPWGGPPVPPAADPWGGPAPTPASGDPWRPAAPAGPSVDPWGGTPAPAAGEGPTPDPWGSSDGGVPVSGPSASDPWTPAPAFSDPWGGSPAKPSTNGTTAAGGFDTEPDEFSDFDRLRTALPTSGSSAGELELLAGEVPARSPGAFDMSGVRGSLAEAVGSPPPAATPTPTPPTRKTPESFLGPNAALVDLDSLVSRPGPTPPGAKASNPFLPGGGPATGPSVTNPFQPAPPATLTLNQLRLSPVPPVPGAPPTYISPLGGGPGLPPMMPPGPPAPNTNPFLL
UniProt Q5RKV6, whole entry, looked up: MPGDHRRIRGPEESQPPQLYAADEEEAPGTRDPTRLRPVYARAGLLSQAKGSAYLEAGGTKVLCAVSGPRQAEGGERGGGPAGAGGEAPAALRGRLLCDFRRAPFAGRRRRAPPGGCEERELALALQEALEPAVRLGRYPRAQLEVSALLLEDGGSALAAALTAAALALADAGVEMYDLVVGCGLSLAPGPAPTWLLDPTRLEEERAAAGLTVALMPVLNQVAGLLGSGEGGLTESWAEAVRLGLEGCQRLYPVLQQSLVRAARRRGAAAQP

crizotinib = compound: C[C@@H](Oc1cc(-c2cnn(C3CCNCC3)c2)cnc1N)c1c(Cl)ccc(F)c1Cl [crizotinib]
Summary of the method: as §1

[2] = compound: C[C@@H]1COCCN1C2=NC(=NC(=C2)C3(CC3)S(=O)(=O)C)C4=C5C=CNC5=CC=C4
Summary of the method: as §1

[3] = compound: C[C@H](C1=CC=C(C=C1)C(=O)NC2=C3C=CNC3=NC=C2)N
Summary of the method: as §1

duvelisib = compound: C[C@H](Nc1ncnc2nc[nH]c12)c1cc2cccc(Cl)c2c(=O)n1-c1ccccc1 [duvelisib]
Summary of the method: as §1

gandotinib = compound: Cc1cc(Nc2cc(CN3CCOCC3)c3nc(C)c(Cc4ccc(Cl)cc4F)n3n2)n[nH]1 [gandotinib]
Summary of the method: as §1

tozasertib = compound: Cc1cc(Nc2cc(N3CCN(C)CC3)nc(Sc3ccc(NC(=O)C4CC4)cc3)n2)n[nH]1 [tozasertib]
Summary of the method: as §1

[4] = compound: Cc1cc(SCc2sc(-c3ccc(C(F)(F)F)cc3)nc2C)ccc1OCC(=O)O
Summary of the method: as §1

doramapimod = compound: Cc1ccc(-n2nc(C(C)(C)C)cc2NC(=O)Nc2ccc(OCCN3CCOCC3)c3ccccc23)cc1 [doramapimod]
Summary of the method: as §1

ispinesib = compound: Cc1ccc(C(=O)N(CCCN)[C@@H](c2nc3cc(Cl)ccc3c(=O)n2Cc2ccccc2)C(C)C)cc1 [ispinesib]
Summary of the method: as §1

bafetinib = compound: Cc1ccc(NC(=O)c2ccc(CN3CC[C@H](N(C)C)C3)c(C(F)(F)F)c2)cc1Nc1nccc(-c2cncnc2)n1 [bafetinib]
Summary of the method: as §1

[5] = compound: Cc1cccc(CC(=O)N2CCc3c2ccc(-c2cn(C)c4ncnc(N)c24)c3F)n1
Summary of the method: as §1

nilotinib = compound: Cc1cn(-c2cc(NC(=O)c3ccc(C)c(Nc4nccc(-c5cccnc5)n4)c3)cc(C(F)(F)F)c2)cn1 [nilotinib]
Summary of the method: as §1

[6] = compound: Cc1nc(Nc2n[nH]c3c2CN(C(=O)N[C@H](CN(C)C)c2ccccc2)C3(C)C)c2sccc2n1
Summary of the method: as §1

dasatinib = compound: Cc1nc(Nc2ncc(C(=O)Nc3c(C)cccc3Cl)s2)cc(N2CCN(CCO)CC2)n1 [dasatinib]
Summary of the method: as §1

[7] = compound: Cc1ncc(-c2ccnc(Nc3ccc(S(C)(=O)=O)cc3)n2)n1C(C)C
Summary of the method: as §1

[8] = compound: Cn1cc(-c2ccc3c(c2)CCN3C(=O)Cc2cccc(C(F)(F)F)c2)c2c(N)ncnc21
Summary of the method: as §1

[9] = compound: Cn1cc(-c2ccc3nnc(C(F)(F)c4ccc5ncccc5c4)n3n2)cn1
Summary of the method: as §1

tipifarnib = compound: Cn1cncc1[C@@](N)(c1ccc(Cl)cc1)c1ccc2c(c1)c(-c1cccc(Cl)c1)cc(=O)n2C [tipifarnib]
Summary of the method: as §1

mubritinib = compound: FC(F)(F)c1ccc(/C=C/c2nc(COc3ccc(CCCCn4ccnn4)cc3)co2)cc1 [mubritinib]
Summary of the method: as §1

Measured: log2 fold change

FABP5 (UniProt Q01469)
inactive: [1] 0 | crizotinib 0.041 | [2] 0.037 | [3] 0.06 | duvelisib -0.054 | gandotinib 0.142 | tozasertib 0.054 | [4] -0.009 | doramapimod -0.092 | ispinesib 0.169 | bafetinib -0.085 | [5] -0.019 | nilotinib -0.011 | [6] -0.007 | dasatinib 0.025 | [7] -0.009 | [8] 0.027 | [9] -0.009 | tipifarnib -0.042 | mubritinib 0.029

EXOSC5 (UniProt Q9NQT4)
inactive: [1] -0.031 | crizotinib 0.048 | [2] -0.036 | [3] -0.022 | duvelisib 0.036 | gandotinib -0.002 | tozasertib 0.034 | [4] -0.016 | doramapimod -0.01 | ispinesib 0.045 | bafetinib 0.012 | [5] -0.08 | nilotinib 0.007 | [6] 0.037 | dasatinib 0.016 | [7] -0.013 | [8] 0.014 | [9] -0.015 | tipifarnib -0.01 | mubritinib -0.002

EWSR1 isoform 5 (UniProt Q01844)
inactive: [1] -0.023 | crizotinib 0.045 | [2] -0.069 | [3] 0.029 | duvelisib -0.011 | gandotinib -0.048 | tozasertib -0.001 | [4] -0.041 | doramapimod -0.044 | ispinesib 0.015 | bafetinib 0 | [5] -0.115 | nilotinib 0.016 | [6] 0.001 | dasatinib 0.048 | [7] 0.019 | [8] -0.024 | [9] -0.03 | tipifarnib 0.032 | mubritinib -0.053

EXOSC7 (UniProt Q15024)
inactive: [1] -0.021 | crizotinib 0.073 | [2] -0.008 | [3] 0.033 | duvelisib 0.015 | gandotinib 0.05 | tozasertib -0.023 | [4] -0.075 | doramapimod -0.013 | ispinesib 0.012 | bafetinib -0.034 | [5] -0.052 | nilotinib -0.004 | [6] 0.055 | dasatinib 0.037 | [7] -0.01 | [8] -0.04 | [9] 0.049 | tipifarnib 0.015 | mubritinib -0.003

ETF1 (UniProt P62495)
inactive: [1] 0.03 | crizotinib -0.052 | [2] -0.002 | [3] -0.013 | duvelisib 0.014 | gandotinib -0.058 | tozasertib -0.039 | [4] 0.008 | doramapimod 0 | ispinesib -0.001 | bafetinib -0.057 | [5] 0.027 | nilotinib -0.074 | [6] 0.005 | dasatinib -0.057 | [7] -0.012 | [8] 0.05 | [9] 0.011 | tipifarnib -0.022 | mubritinib 0.007

ERCC4 (UniProt Q92889)
inactive: [1] 0.27 | crizotinib 0.025 | [2] 0.238 | [3] 0.243 | duvelisib 0.166 | gandotinib -0.144 | tozasertib -0.037 | [4] -0.031 | doramapimod 0 | ispinesib -0.134 | bafetinib 0.076 | [5] -0.068 | nilotinib -0.325 | [6] 0.406 | dasatinib 0.128 | [7] 0.092 | [8] 0.057 | [9] -0.051 | tipifarnib -0.038 | mubritinib 0.059

FAM20B (UniProt O75063)
inactive: [1] -0.059 | crizotinib 0.09 | [2] 0.004 | [3] -0.049 | duvelisib -0.025 | gandotinib -0.086 | tozasertib -0.003 | [4] 0.006 | doramapimod 0.032 | ispinesib -0.027 | bafetinib -0.01 | [5] 0.041 | nilotinib -0.131 | [6] -0.078 | dasatinib 0.008 | [7] -0.07 | [8] 0.044 | [9] -0.015 | tipifarnib 0.057 | mubritinib 0.006

FAHD2A (UniProt Q96GK7)
inactive: [1] 0.015 | crizotinib 0.095 | [2] -0.032 | [3] -0.049 | duvelisib -0.006 | gandotinib 0.07 | tozasertib -0.002 | [4] -0.01 | doramapimod -0.061 | ispinesib 0.102 | bafetinib -0.07 | [5] -0.02 | nilotinib 0.069 | [6] 0.078 | dasatinib 0.025 | [7] 0.006 | [8] 0.046 | [9] 0.032 | tipifarnib -0.003 | mubritinib 0.018

F11R (UniProt Q9Y624)
inactive: [1] 0.008 | crizotinib 0.154 | [2] 0.022 | [3] -0.078 | duvelisib 0.039 | gandotinib -0.005 | tozasertib -0.034 | [4] -0.039 | doramapimod -0.039 | ispinesib 0.122 | bafetinib 0.037 | [5] -0.016 | nilotinib 0.01 | [6] 0.011 | dasatinib 0.051 | [7] -0.017 | [8] 0.012 | [9] -0.019 | tipifarnib 0.008 | mubritinib 0.071

EPB41L3 (UniProt Q9Y2J2)
inactive: [1] 0.015 | crizotinib 0.006 | [2] 0.072 | [3] -0.112 | duvelisib 0.026 | gandotinib -0.059 | tozasertib -0.062 | [4] -0.016 | doramapimod -0.013 | ispinesib 0.013 | bafetinib -0.02 | [5] 0.063 | nilotinib 0.056 | [6] -0.053 | dasatinib 0.055 | [7] -0.061 | [8] 0.008 | [9] -0.01 | tipifarnib -0.019 | mubritinib 0.03

ERMP1 (UniProt Q7Z2K6)
inactive: [1] 0.023 | crizotinib 0.041 | [2] 0.037 | [3] -0.054 | duvelisib 0.038 | gandotinib 0.01 | tozasertib 0.023 | [4] -0.025 | doramapimod 0.012 | ispinesib -0.07 | bafetinib -0.032 | [5] -0.066 | nilotinib 0.053 | [6] 0.016 | dasatinib 0.047 | [7] -0.012 | [8] 0.021 | [9] 0.03 | tipifarnib 0.04 | mubritinib 0.022

ERCC3 (UniProt P19447)
inactive: [1] 0.1 | crizotinib 0.148 | [2] -0.186 | [3] 0.042 | duvelisib 0.117 | gandotinib 0.06 | tozasertib -0.094 | [4] 0.017 | doramapimod 0.041 | ispinesib -0.005 | bafetinib 0.062 | [5] -0.071 | nilotinib 0.033 | [6] -0.103 | dasatinib -0.111 | [7] 0.048 | [8] -0.121 | [9] -0.082 | tipifarnib -0.165 | mubritinib -0.009

Looked up one by one from the list above (2):
F11R (UniProt Q9Y624)
inactive: [1] 0.008 | crizotinib 0.154 | [2] 0.022 | [3] -0.078 | duvelisib 0.039 | gandotinib -0.005 | tozasertib -0.034 | [4] -0.039 | doramapimod -0.039 | ispinesib 0.122 | bafetinib 0.037 | [5] -0.016 | nilotinib 0.01 | [6] 0.011 | dasatinib 0.051 | [7] -0.017 | [8] 0.012 | [9] -0.019 | tipifarnib 0.008 | mubritinib 0.071

EXOSC7 (UniProt Q15024)
inactive: [1] -0.021 | crizotinib 0.073 | [2] -0.008 | [3] 0.033 | duvelisib 0.015 | gandotinib 0.05 | tozasertib -0.023 | [4] -0.075 | doramapimod -0.013 | ispinesib 0.012 | bafetinib -0.034 | [5] -0.052 | nilotinib -0.004 | [6] 0.055 | dasatinib 0.037 | [7] -0.01 | [8] -0.04 | [9] 0.049 | tipifarnib 0.015 | mubritinib -0.003

(continued)

FAHD1 (UniProt Q6P587)
inactive: [1] 0.027 | crizotinib 0.05 | [2] 0.014 | [3] -0.012 | duvelisib 0.045 | gandotinib 0.037 | tozasertib 0.003 | [4] -0.018 | doramapimod 0.032 | ispinesib 0.004 | bafetinib -0.04 | [5] 0.029 | nilotinib 0.004 | [6] -0.006 | dasatinib 0.033 | [7] -0.014 | [8] 0.031 | [9] -0.006 | tipifarnib 0.032 | mubritinib 0.025

ERP44 (UniProt Q9BS26)
inactive: [1] 0.012 | crizotinib 0.064 | [2] -0.005 | [3] 0.02 | duvelisib 0.003 | gandotinib 0.054 | tozasertib 0.007 | [4] -0.001 | doramapimod 0.011 | ispinesib 0.024 | bafetinib -0.03 | [5] 0.004 | nilotinib -0.031 | [6] 0.013 | dasatinib 0.066 | [7] -0.036 | [8] -0.018 | [9] 0.019 | tipifarnib 0.071 | mubritinib -0.025

EPN1 (UniProt Q9Y6I3)
inactive: [1] 0.01 | crizotinib -0.005 | [2] 0.085 | [3] -0.025 | duvelisib 0.027 | gandotinib -0.046 | tozasertib 0.033 | [4] 0.008 | doramapimod -0.005 | ispinesib -0.026 | bafetinib -0.102 | [5] 0.006 | nilotinib -0.075 | [6] -0.006 | dasatinib -0.064 | [7] -0.02 | [8] 0.035 | [9] 0.005 | tipifarnib -0.05 | mubritinib 0.073

EXO5 (UniProt Q9H790)
inactive: [1] -0.002

EXOSC6 (UniProt Q5RKV6)
inactive: [1] -0.058 | crizotinib 0.048 | [2] 0.021 | [3] -0.061 | duvelisib -0.018 | gandotinib -0.008 | tozasertib 0.025 | [4] -0.002 | doramapimod 0.061 | ispinesib 0.024 | bafetinib -0.012 | [5] -0.043 | nilotinib 0.024 | [6] 0.03 | dasatinib 0.034 | [7] -0.047 | [8] -0.007 | [9] -0.005 | tipifarnib -0.033 | mubritinib 0.032
